Our source for the IC50 values is article PMC8403975 (Bioorganic Chemistry, 2021).

Molecules are shown by their SMILES. Values after ≈ are worked out from the molar mass of the structure shown.

The test system of the assay is voltage-dependent Ca2+ channels (isolated rat ileum). As to the kind of experiment: Calcium antagonism: relaxation of K+. The conditions noted are these: K+ (80 mM)-induced contractions of rat ileum; mean ± SD, three independent experiments.

Regarding `COC(=O)C1=C(C)NC(C)=C(C(=O)OC)C1c1ccccc1[N+](=O)[O-]` [Nifedipine, reference compound], the IC50 stood at 21.00 ± 1.20 µg/mL (≈ 60.6 µM).
